Test results taken from the supplement of paper PMC8007513.
The other results are listed elsewhere or left out. Single values are uncertain, as repeats are few or missing.

These molecules were tested on Saccharomyces cerevisiae BY4743 (assay: growth (OD600) with compound + IPBC relative to untreated control; higher = less growth inhibition). Conditions: compound concentration: 133 uM; IPBC concentration: 0.5 ug/ml; 20 h.
Protocol: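 NMCCC compounds (133 uM) combined with IPBC (0.5 ug/ml) against Saccharomyces cerevisiae BY4743 in YPD, 96-well plates. Growth was read as OD600 at 20 h and expressed as % of the untreated control. Single pass.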

Compound | growth [%]
CC1Cc2cc(S(N)(=O)=O)ccc2N1Cc1cccc(C(F)(F)F)c1 (stereo not drawn) + CCCCNC(=O)OCC#CI [3-iodo-2-propynyl butylcarbamate (IPBC)] | 99.1
COc1cc(C(=O)OCC(=O)N(C)CC2COc3ccccc3O2)ccc1OC(C)C (stereo not drawn) + CCCCNC(=O)OCC#CI [3-iodo-2-propynyl butylcarbamate (IPBC)] | 100
COc1ccccc1N(CCC(N)=O)C(=O)C1COc2ccccc2O1 (stereo not drawn) + CCCCNC(=O)OCC#CI [3-iodo-2-propynyl butylcarbamate (IPBC)] | 99.6
CC(C)(C)C1=CSC(=N1)NC(=O)\C2=N\N(CC3=CC=C(F)C=C3)C(=O)CC2 + CCCCNC(=O)OCC#CI [3-iodo-2-propynyl butylcarbamate (IPBC)] | 85.1
COC1=CC=CC=C1NC(=O)CS\C2=N\C(=C/C(=O)N2C3=CC=CC=C3OC)O + CCCCNC(=O)OCC#CI [3-iodo-2-propynyl butylcarbamate (IPBC)] | 92.4
CC(C)CCC(C)NC(=O)CSc1nnc(-c2ccc(F)c(F)c2)c(O)n1 (stereo not drawn) + CCCCNC(=O)OCC#CI [3-iodo-2-propynyl butylcarbamate (IPBC)] | 82.3
COc1ccc(-c2noc(CC(=O)N(C)c3cc(C)ccc3C)n2)cc1 + CCCCNC(=O)OCC#CI [3-iodo-2-propynyl butylcarbamate (IPBC)] | 99.8
CCC(C)NS(=O)(=O)c1ccc2c(c1)N(C)CCO2 (stereo not drawn) + CCCCNC(=O)OCC#CI [3-iodo-2-propynyl butylcarbamate (IPBC)] | 101

Exported as a markdown table: entries from further up.

| Compound | growth [%] |
| --- | --- |
| COc1cc(C(=O)OCC(=O)N(C)CC2COc3ccccc3O2)ccc1OC(C)C (stereo not drawn) + CCCCNC(=O)OCC#CI [3-iodo-2-propynyl butylcarbamate (IPBC)] | 100 |
| COc1ccccc1N(CCC(N)=O)C(=O)C1COc2ccccc2O1 (stereo not drawn) + CCCCNC(=O)OCC#CI [3-iodo-2-propynyl butylcarbamate (IPBC)] | 99.6 |
